Each structure is given as a SMILES string. The list shows a part of the results. Shown are side measurements of this screen, not its main read-out; they come without a call. Compounds called inactive in the main read-out are mostly missing here.

The assay can be described thus: hepatocyte lipid droplet accumulation inhibitors, confirmation, imaging, AML12 mouse hepatocytes, single concentration, high-content (AID 463183).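 Also: cells counted after overnight compound exposure.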 Particulars: BODIPY lipid droplet imaging, measured here: cell count, cytotoxicity, at 5.2 µM, droplets induced with 100 µM oleic acid.
`COc1ccc(CCNC(=O)c2cc(-c3ccccc3)c(N3CCOCC3)s2)c(OC)c1OC` came in with a cell count of 1520 cells.

Molecule `COc1ccc(C2(c3ccc(OC)cc3)NC(=O)N(CC(=O)Nc3cc(C)ccc3OC)C2=O)cc1` returned a cell count of 1670 cells.

As for `CCOc1nc(-c2ccncc2)nc2ccccc12`, the cell count was determined as 1640 cells.

With `Cc1cc(=O)oc2cc(OCC(=O)NC3CCN(Cc4ccccc4)CC3)c(Cl)cc12`, the cell count was determined as 1610 cells.

As to `CCOc1ccc(CCNC(=O)c2ccc3ccccc3n2)cc1OCC`, the cell count is 1630 cells.

`CCOc1ccc(CCNC(=O)Cn2nc(C)c3c(C)n(-c4ccccc4)nc3c2=O)cc1OCC` gave a cell count of 1620 cells.

In turn, `CCC(Sc1nc2ccsc2c(=O)n1-c1ccc(Cl)c(C)c1)C(=O)NCc1ccco1` (centres undefined) returned a cell count of 1690 cells.

`Cc1c(O)ccc(/C=N/Nc2nc(-c3cccnc3)nc3ccccc23)c1O` had a cell count of 1130 cells.

Take `CCn1c(=O)c2cc(C(=O)NCCC(C)C)sc2c2ccccc21`: the cell count is 1680 cells.

Take `CCCSC(=O)N(CC)CC(=O)Nc1c(CC)cccc1CC`: the cell count amounted to 1590 cells.

For `CCOc1ccc(CCNC(=O)COC(=O)c2cc([N+](=O)[O-])ccc2N2CCOCC2)cc1OCC`, the cell count was 1600 cells.

As for `CCOc1ccc(NS(=O)(=O)c2ccc(C(=O)N(CC)CC(=O)NCc3cccs3)cc2)cc1`, the cell count was determined as 1690 cells.

Molecule `CCC(=O)Nc1c2c(nn1-c1ccc(C)cc1)CS(=O)(=O)C2` registered a cell count of 1580 cells.

`CCC(C)(C)NC(=O)C(c1sccc1C)N(Cc1ccco1)C(=O)c1csnn1` (centres undefined) gave a cell count of 1630 cells.

With `CC(C)(C)c1cc(Br)c(O)c(N=Nc2ccc(S(=O)(=O)N3CCOCC3)cc2)c1`, the cell count was 1550 cells.

Take `Cc1ccc(S(=O)(=O)N(C)C)cc1NC(=S)Nc1ccc2cn[nH]c2c1`: the cell count worked out at 1660 cells.

`CCOc1cc([C@@H]2C[C@H]3CN(c4ccccc4)C(=O)[C@]34CCCN24)ccc1OC` had a cell count of 1590 cells.

In turn, `COc1ccc(NC(=O)COC(=O)/C=C/C(=O)OCC(=O)Nc2ccc(OC)c(Cl)c2)cc1Cl` came in with a cell count of 1520 cells.

The molecule `Cc1cc(C(c2ccc(O)cc2)c2cc(C)c(O)cc2C)c(C)cc1O` displayed a cell count of 1630 cells.

The molecule `COc1ccc(NS(=O)(=O)c2ccc(NC(=S)NCC3CCCO3)cc2)cc1` (centres undefined) yielded a cell count of 1640 cells.

`CCOc1ccc(CC(=O)Nc2ccc(NC(=O)c3ccco3)cc2)cc1OCC` returned a cell count of 1720 cells.

The molecule `COC(=O)c1cn(NC(=O)c2ccc([N+](=O)[O-])cc2Cl)c(=O)c2ccccc12` displayed a cell count of 1670 cells.

As to `Cc1cccc(NC(=O)c2nc[nH]c2C(=O)NCC(=O)OC(C)(C)C)c1`, the cell count is 1520 cells.

In turn, `Cc1cc(C)c(C(=O)NC2CCCc3c2cnn3-c2cccc(C)c2C)o1` (centres undefined) came in with a cell count of 1620 cells.

For `O=[N+]([O-])c1ccc(-[n+]2nc(-c3ccccc3)nn2-c2ccccc2)cc1`, the cell count turned out to be 1620 cells.

In the case of `Cc1ccccc1OCc1nnc(SCC(=O)Nc2ccc3c(c2)oc2ccccc23)n1C`, the cell count was found to be 1500 cells.

`C=CCNC(=S)Nc1cc(S(=O)(=O)N2CCOCC2)ccc1-n1cncn1` returned a cell count of 1660 cells.

Molecule `CCOc1ccc(CCNC(=O)c2cc(C)nc3ccccc23)cc1OCC` registered a cell count of 1620 cells.

On to `O=C(NC1CCCc2c1cnn2-c1cc(F)cc(F)c1)c1ccccn1` (centres undefined), for which the cell count was 1510 cells.

`CCOc1ccc(CCNC(=O)CS(=O)Cc2nc(-c3ccccc3C)oc2C)cc1OCC` (centres undefined) showed a cell count of 1560 cells.

The molecule `COc1ccc(OC)c(NC(=O)c2cc3oc4ccccc4c3cc2O)c1` had a cell count of 1580 cells.

In turn, `CCCCN(CCCNC(=O)Cn1nc(CC)n2c(cc3sc(C)cc32)c1=O)Cc1ccccc1` displayed a cell count of 1620 cells.

`COc1ccc(NC(=O)[C@H](C)NC(=O)[C@@H]2Cc3ccccc3CN2C(=O)OC(C)(C)C)cc1` displayed a cell count of 1600 cells.

The molecule `CCOC(=O)C1=C(C)NC(=O)NC1/C=C/c1ccccc1` (centres undefined) registered a cell count of 1550 cells.

For `Cc1[nH]n(-c2ccccc2)c(=O)c1N=Nc1ccc(C(=O)O)cc1`, the cell count worked out at 1650 cells.

`Cc1ccc2nc(=O)c(NNc3ccccc3)cnc2c1` yielded a cell count of 1240 cells.

On to `COc1ccc(C(=O)OCC(=O)NC(C)CCc2ccccc2)cc1OC` (centres undefined), for which the cell count turned out to be 1580 cells.

Take `COc1ccc(-n2c(=O)c3c4c(sc3n(CC(=O)Nc3cc(C)[nH]n3)c2=O)CCC4)c(OC)c1`: the cell count is 1590 cells.

Turning to `COC(=O)/C(=C/c1ccc2c(c1)c1ccccc1n2C)NC(=O)c1ccccc1`, the cell count is 1620 cells.

The values are drawn from PubChem BioAssay AID463183 (Sanford-Burnham Center for Chemical Genomics, 2010).
